Data from publication PMC9674103.
These are yes or no findings as the source states them, for the method shown.

Key:
Settings in all cases: remark: other sources report otherwise
[1] = target: T1, full-length recombinant human espin 1 (ectoplasmic specialization protein 1) (human), B1AK53; assay: SEC; Superdex 200 10/300 GL, 0.4 ml/min, 50 mM sodium acetate, 2 mM MgCl2, 1 mM EGTA, 30 mM HEPES pH 7.5; fractions analysed by SDS-PAGE; both purified
T1 chain: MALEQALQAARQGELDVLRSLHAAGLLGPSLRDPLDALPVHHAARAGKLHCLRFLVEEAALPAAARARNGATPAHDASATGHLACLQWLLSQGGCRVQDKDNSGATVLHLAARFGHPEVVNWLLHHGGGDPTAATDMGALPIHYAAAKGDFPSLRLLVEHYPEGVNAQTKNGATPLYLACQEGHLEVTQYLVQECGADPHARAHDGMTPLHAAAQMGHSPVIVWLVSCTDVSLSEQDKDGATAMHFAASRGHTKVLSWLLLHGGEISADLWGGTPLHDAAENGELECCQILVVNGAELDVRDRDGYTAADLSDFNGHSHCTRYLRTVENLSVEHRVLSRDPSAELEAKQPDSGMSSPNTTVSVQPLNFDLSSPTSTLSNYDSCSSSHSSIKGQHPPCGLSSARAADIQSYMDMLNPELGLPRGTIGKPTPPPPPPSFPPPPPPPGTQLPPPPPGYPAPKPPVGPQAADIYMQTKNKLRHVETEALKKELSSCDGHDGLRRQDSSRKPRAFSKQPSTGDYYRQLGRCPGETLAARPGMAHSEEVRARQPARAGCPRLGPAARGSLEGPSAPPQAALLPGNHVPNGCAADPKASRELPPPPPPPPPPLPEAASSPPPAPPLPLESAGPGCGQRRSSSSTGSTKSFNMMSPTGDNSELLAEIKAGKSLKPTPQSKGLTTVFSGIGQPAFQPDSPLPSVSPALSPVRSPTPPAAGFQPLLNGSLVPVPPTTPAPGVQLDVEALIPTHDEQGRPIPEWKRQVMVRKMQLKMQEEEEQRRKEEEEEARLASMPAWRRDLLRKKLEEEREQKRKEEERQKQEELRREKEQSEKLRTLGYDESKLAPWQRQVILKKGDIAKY

[2] = target: T1, full-length recombinant human espin 1 …; assay: negative-stain TEM with 2D class averaging and Ni-NTA nanogold labelling; purified espin 1 alone on carbon-coated grids, 1% uranyl acetate; 5 nm Ni-NTA nanogold on the N-terminal his6-tag; 2D classes with SPIDER; both purified
[3] = target: T1, full-length recombinant human espin 1 …; assay: non-reducing PAGE; espin 1 without beta-mercaptoethanol against a reducing control; both purified

Measured: binding

B1: full-length recombinant human espin 1 (ectoplasmic specialization protein 1), B1AK53 1-854 (protein)
chain: T1 chain
no binding: all assays above
